From PubChem BioAssay AID540276 (National Center for Advancing Translational Sciences (NCATS), 2011)
Hit rate of the full screen: of about 300,000 compounds, about 5,400 (1.8%) were called active. Inconclusive means that the source gave no clear call. Such entries were picked first, then a sample of the others. Calls follow the shape of the full dose curve; tested in HEK293 cells. Potencies beside an inconclusive call are fits to weak or partial responses and may not hold up.

Experiment: qHTS for inhibitors of binding or entry into cells for Marburg Virus
Conditions: Marburg virus pseudotyped entry inhibition, cell reporter; activity change, negative = inhibition: at 37.8 µM (top of the series) unless noted
% is scaled to controls: 0 for no effect and ±100 for the full control effect; potency is read from the fitted curve at half-maximal effect.

| Structure (SMILES) | Potency | activity change, negative = inhibition |
| --- | --- | --- |
| CCCn1c(O)c(N=NC(=O)c2ccco2)c2ccccc21 | inconclusive: 0.0326 µM [inhibitor, full curve, poor fit] | – |
| CCOC(=O)C1=C(Cn2ccc(C(F)(F)F)n2)NC(=O)NC1c1ccc2c(c1)OCO2 (stereo not drawn) | inconclusive: 12.6 µM [inhibitor, partial curve, poor fit] | – |
| CC(=O)NC12CC3CC(C1)CC(C(=O)N(C)Cc1cccc(Cl)c1Cl)(C3)C2 | inconclusive: 1.58 µM [inhibitor, partial curve, poor fit] | – |
| COc1ccc(-c2csc(N3C(=O)CNC3=S)n2)cc1 | inconclusive: 8.91 µM [inhibitor, partial curve, poor fit] | – |
| CCCN1C(=O)/C(=C/c2ccc(N3CCCC3)c(C)c2)NC1=S | inconclusive: 25.9 µM [inhibitor, partial curve, poor fit] | – |
| COc1ccc2c(=O)cc(-c3ccncc3)oc2c1OC | inconclusive: 7.94 µM [inhibitor, partial curve] | – |
| CC(C)(C)c1cc(-c2n[nH]c(=S)n2-c2ccccc2F)n[nH]1 | inconclusive: 35.5 µM [activator, single point] | – |
| CCc1ccc(-n2c(SCC(=O)c3ccc4c(c3)NC(=O)CO4)nc3ccccc3c2=O)cc1 | – | inactive: -4.51% [at 46.1 µM] |
| CCCNC(=O)/C=C/c1ccc(S(=O)(=O)Nc2ccccc2OC)cc1 | inconclusive: 11.2 µM [inhibitor, partial curve, poor fit] | – |
| COc1cccc(/C=N/NC(=O)C(=O)N/N=C/c2cccc(OC)c2O)c1O | inconclusive: 39.8 µM [inhibitor, partial curve, poor fit] | – |
| CC1(C)CC(=O)c2sc(NS(C)(=O)=O)nc2C1 | inconclusive: 0.164 µM [activator, full curve, poor fit] | – |
| COc1ccc(-c2nc(-c3ccccc3)c(-c3ccccc3)[nH]2)cc1Br | inconclusive: 6.31 µM [inhibitor, single point] | – |
| CCCN1CCN(CCCNC(=O)CCN2C(=O)COc3ccccc32)CC1 | inconclusive: 5.62 µM [inhibitor, full curve] | – |
| CCc1noc(C)c1C(=O)Nc1ccc(C#N)cc1 | inconclusive: 1 µM [activator, full curve, poor fit] | – |
| CN(C)Cc1c(O)ccc2occ(C(O)c3ccccc3)c12 (stereo not drawn) | inconclusive: 35.5 µM [inhibitor, single point] | – |
| C=C(C)COc1ccc(-c2[nH]ncc2-c2ccc(Br)cc2)c(O)c1 | active: 3.26 µM | – |
| O=C(N/N=C/C=C/c1ccccc1)c1cccnc1 | – | inactive: -12.1% [at 46.1 µM] |
| CC(C)c1ccc(-c2csc3ncnc(N4CCN(C)CC4)c23)cc1 | inconclusive: 35.5 µM [inhibitor, single point] | – |
| Cc1ncc(C[n+]2csc(C)c2C)c(N)n1 | – | inactive: 22.3% [at 46.1 µM] |
| CCCCn1c2nc3ccccc3nc2c2c(=O)n(-c3ccccc3)cnc21 | inconclusive: 31.6 µM [activator, single point] | – |
| O=C(CCCOc1ccc(Cl)cc1)N1CCCCCC1 | inconclusive: 29.1 µM [activator, single point] | – |

| Structure (SMILES) | Potency | activity change, negative = inhibition |
| --- | --- | --- |
| CCOc1cc(/C=C(\C#N)c2nc(-c3cccs3)c(NC(C)=O)s2)ccc1O | inconclusive: 2.24 µM [inhibitor, partial curve, poor fit] | – |
| COc1cccc(C=NNC(=O)c2ccncc2)c1O | inconclusive: 7.94 µM [inhibitor, partial curve, poor fit] | – |
| O=[N+]([O-])c1ccccc1OCCOCCOc1cccc2cccnc12 | inconclusive: 2.82 µM [activator, partial curve] | – |
| CC(C)(C)C1CCC(C(=O)Nc2ccccc2N2CCOCC2)CC1 (stereo not drawn) | inconclusive: 0.282 µM [inhibitor, full curve, poor fit] | – |
| Cc1noc(COc2ccccc2OC[C@H](O)CNC(C)(C)C)n1 | – | inactive: -7.5% |
| O=C(NCC1CCCO1)C(c1cccs1)N(Cc1ccccc1Cl)C(=O)c1ccc(-c2ccccc2)[nH]1 (stereo not drawn) | inconclusive: 20.6 µM [inhibitor, single point] | – |
| CC(C)c1nnc(N2C(=O)c3oc4ccccc4c(=O)c3C2c2cccc(O)c2)s1 (stereo not drawn) | – | inactive: 10.9% [at 46.1 µM] |
| COc1cccc(NC(=O)CSc2nccn2-c2cccc(OC)c2)c1 | inconclusive: 14.1 µM [inhibitor, partial curve, poor fit] | – |
| CCCn1c(NCc2ccccc2NS(=O)(=O)c2ccc(C)cc2)nc2ccccc21 | active: 6.31 µM | – |
| CCc1nc(C)cn1S(=O)(=O)c1cc(Cl)c(OC)cc1Cl | inconclusive: 29.1 µM [inhibitor, single point] | – |
| CC(NC(=O)OC(C)(C)C)C(=O)NC(CCC(=O)OCc1ccccc1)C(N)=O (stereo not drawn) | – | inactive: 9.99% [at 46.1 µM] |
| Cc1cc(C(F)(F)F)n(-c2nc(C(=O)N/N=C/c3ccc(F)cc3)cs2)n1 | inconclusive: 29.1 µM [inhibitor, single point] | – |
| COc1ccc(N2CCN(C(CNS(=O)(=O)c3ccc4c(c3)OCCO4)c3ccco3)CC2)cc1 (stereo not drawn) | inconclusive: 8.91 µM [inhibitor, partial curve, poor fit] | – |
| CCn1cc(C(=O)OCC(=O)Nc2cc(C)cc(C)c2)c(=O)c2ccc(C)nc21 | inconclusive: 35.5 µM [inhibitor, single point] | – |
| NS(=O)(=O)c1ccc(CCNC(=O)C2CCN(C(=O)Nc3ccccc3)CC2)cc1 | inconclusive: 0.708 µM [activator, single point] | – |
| O=C(NCc1ccncc1)c1cccc(S(=O)(=O)Nc2ccc(F)cc2)c1 | inconclusive: 5.62 µM [inhibitor, single point] | – |
| O=[N+]([O-])c1cc(Cl)ccc1NCCNS(=O)(=O)c1ccccc1 | – | inactive: -1.3% |
| CCOC(=O)C1(CCc2ccccc2)CCN(Cc2nccn2CC)CC1 | inconclusive: 5.62 µM [activator, single point] | – |
| COc1ccc(-c2nnc(NC(=O)CSc3ccc(C)cc3)s2)cc1OC | inconclusive: 3.98 µM [activator, full curve, poor fit] | – |
| Cc1cc(C(=O)Nc2ncc(C)s2)c2ccccc2n1 | inconclusive: 6.31 µM [activator, single point] | – |
| COc1ccc(CCNC(=O)c2cc(-c3ccccc3)nc3ccccc23)cc1OC | inconclusive: 11.2 µM [inhibitor, partial curve, poor fit] | – |

| Structure (SMILES) | Potency | activity change, negative = inhibition |
| --- | --- | --- |
| CC(C)CON=C1C[C@@H](O)[C@@H](O)[C@@H]2[C@H]3C(=O)N(Cc4ccccc4)C(=O)[C@@H]3CC[C@@H]12 | – | inactive: 0.721% [at 14.2 µM] |
| COc1ccccc1N(CC(=O)Nc1ccc(C)cc1Cl)S(=O)(=O)c1cccs1 | inconclusive: 17.8 µM [inhibitor, single point] | – |
| CCS(=O)(=O)Nc1cccc(C(=C2CCCCC2)c2cnc[nH]2)c1 | inconclusive: 3.66 µM [inhibitor, partial curve, poor fit] | – |
| COc1ccc(NC(=O)CN(C)C(=O)c2cccc(S(=O)(=O)N3CCN(c4ccccc4)CC3)c2)cc1 | inconclusive: 10 µM [inhibitor, partial curve, poor fit] | – |
| COc1ccc(NC(=O)c2cc3ccccc3o2)cc1OC | – | inactive: 7.95% |
| CCOC(=O)c1c(NC(=O)COC(=O)CC(NC(C)=O)c2ccccc2)sc(C(=O)NC)c1C (stereo not drawn) | – | inactive: -8.25% |
| O=C(CN1C(=O)NC2(CCCCCC2)C1=O)NCc1ccc(Cl)cc1 | inconclusive: 0.112 µM [inhibitor, full curve, poor fit] | – |
| COc1ccccc1/C=N/NC(=O)C(=O)Nc1ccccc1OC(F)(F)C(F)F | inconclusive: 1.16 µM [inhibitor, single point] | – |
| CC(C)(C)c1ccc(NC(=O)Nc2ccc(OCC(=O)N3CCOCC3)cc2)cc1 | – | inactive: 0.129% [at 46.1 µM] |
| CN(C(=O)COC(=O)c1ccc2c(c1)OCO2)C1CCCCC1 | inconclusive: 22.4 µM [activator, single point] | – |
| c1ccc2c(c1)oc1c(NCc3ccc4c(c3)OCO4)ncnc12 | inconclusive: 0.316 µM [activator, partial curve, poor fit] | – |
| Cc1ccc(S(=O)(=O)NCC2CCC(C(=O)NCc3cccnc3)CC2)cc1 (stereo not drawn) | inconclusive: 5.62 µM [inhibitor, single point] | – |
| COc1ccccc1C(c1nnnn1CCc1ccccc1)N1CCN(c2ccccc2)CC1 (stereo not drawn) | inconclusive: 11.2 µM [inhibitor, partial curve, poor fit] | – |
| CC(=O)NC(Cc1c[nH]c2ccccc12)C(=O)OCC(=O)Nc1ccc2c(c1)OCO2 (stereo not drawn) | – | inconclusive: 25.3% [activator] |
| COc1ccc(C)cc1NC(=O)CNc1ccc(C(C)=O)cc1 | inconclusive: 5.62 µM [activator, single point] | – |
| O=C(C=CC(=O)OC1CCCCC1)OC1CCCCC1 | inconclusive: 35.5 µM [inhibitor, single point] | – |
| CC(=O)c1ccc(OCCCC(=O)N2CCN(S(=O)(=O)c3ccc(C)cc3C)CC2)cc1 | inconclusive: 12.6 µM [inhibitor, single point] | – |
| COc1cc(NC(=O)CCS(=O)(=O)c2nc(-c3cccs3)cc(C(F)(F)F)n2)cc(OC)c1OC | inconclusive: 11.2 µM [inhibitor, partial curve, poor fit] | – |
| CC(OC(=O)Cc1n[nH]c(=O)c2ccccc12)C(=O)Nc1cccc([N+](=O)[O-])c1 (stereo not drawn) | inconclusive: 0.282 µM [inhibitor, full curve, poor fit] | – |
| COc1cc(/C=C2/SC(=S)N(Cc3ccccc3)C2=O)ccc1OCC(=O)O | inconclusive: 6.31 µM [inhibitor, full curve] | – |
| COc1ccccc1-c1noc(CSc2nc3ccc(C)cc3[nH]2)n1 | inconclusive: 25.1 µM [inhibitor, single point] | – |

Whole records, looked up by structure. Order of values: Potency | activity change, negative = inhibition
c1ccc2c(c1)oc1c(NCc3ccc4c(c3)OCO4)ncnc12 in the list: inconclusive: 0.316 µM [activator, partial curve, poor fit] | –
O=C(C=CC(=O)OC1CCCCC1)OC1CCCCC1 in the list: inconclusive: 35.5 µM [inhibitor, single point] | –
COc1ccc(NC(=O)CN(C)C(=O)c2cccc(S(=O)(=O)N3CCN(c4ccccc4)CC3)c2)cc1 in the list: inconclusive: 10 µM [inhibitor, partial curve, poor fit] | –
COc1ccc(NC(=O)c2cc3ccccc3o2)cc1OC in the list: – | inactive: 7.95%
